Experimental data reported in US20060040925A1, “Aminocyclohexene quinolines and their azaisosteric analogues with antibacterial activity” (priority 2002, published 2006).
Some of these results come from one statement about several compounds together.

Test system: S. epidermidis CL7, S. aureus WCUH29, S. pneumoniae 1629, S. pyogenes CN10, H. influenzae ATCC 49247, E.faecalis 2, M. catarrhalis Ravasio, E. coli 7623
Experiment: MIC of test compounds against various organisms
Type: cell-based
Details: versus all these organisms (the eight strains of b406)
Protocol: The MIC (μg/ml) of test compounds against various organisms was determined including: S. epidermidis CL7, S. aureus WCUH29, S. pneumoniae 1629, S. pyogenes CN10, H. influenzae ATCC 49247, E.faecalis 2, M. catarrhalis Ravasio, E. coli 7623.

Structure (SMILES)	MIC
COc1c(F)ccc2nccc(NC(=O)[C@@]3(O)C=C[C@H](NCc4cc5c(cn4)OCCO5)CC3)c12 [Example 8]	≤ 16 µg/mL
COc1c(F)ccc2nccc(NC(=O)[C@@]3(O)C=C[C@H](NCc4cc5c(cn4)OCCO5)CC3)c12 [Example 9]	≤ 2 µg/mL
